Reference: PubChem BioAssay AID504791 (Drosophila RNAi Screening Center, 2011)
Assay: 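Factors in Argonaute-based small RNA production and activity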 (primary screen). Cells: Drosophila S2-derived reporter cells. Knock-down reagent: long dsRNA against Drosophila genes, about 150-250 ng dsRNA per well (siRNA assay); about 80-120 ng (miRNA assay). Timing: about 5 days (siRNA assay); about 4 days (miRNA assay). Challenge: copper sulfate induction of reporters: 25 µM (siRNA assay); 200 mM stated (miRNA assay), 1-2 days before reading. Measured: 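Dual luciferase assay: Renilla to firefly signal ratio in each well, scaled to the mean ratio of its plate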. Reading the numbers: siRNA reporter hit score: higher = 3 marks a strong hit with raised ratio; -3 a strong hit with lowered ratio. Call rule: 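a well was a first-pass pick when its plate-scaled ratio rose above 1.5 (siRNA assay) or 1.6 (miRNA assay), or dropped below 0.6; a gene counted only if two separate dsRNAs agreed on retest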.
In all, the deposit lists about 23,000 reagents; this is a random part of those with a known target gene and a result. Of all reagents, 199 (0.86%) were called active. 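Plate-scaled ratios behind the calls are not deposited; printed light signals are raw; many rows marked increased or decreased are still called inactive.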

no.	gene	dsRNA	siRNA reporter hit score	stable siRNA reporter change	stable assay Renilla, run 1 (luminescence)	stable assay firefly, run 1 (luminescence)	activity call
1	CG31820	DRSC21318			9059	5.79e5	inactive
2	Or10a (Odorant receptor 10a)	DRSC20264			4459	4.47e5	inactive
3	Fmr1 (Fragile X messenger ribonucleoprotein 1)	DRSC16674			6467	5.14e5	inactive
4	grau (grauzone)	DRSC04691			6610	4.01e5	inactive
5	Trf (TBP-related factor)	DRSC03462			7422	3.77e5	inactive
6	SPR (Sex peptide receptor)	DRSC17390			4519	4.48e5	inactive
7	SPR (Sex peptide receptor)	DRSC17886			7322	5.97e5	inactive
8	SPR (Sex peptide receptor)	DRSC18114			6032	3.96e5	inactive
9	SPR (Sex peptide receptor)	DRSC21557			8758	4.22e5	inactive
10	Ten-m (Tenascin major)	DRSC11664	3		7602	4.31e5	inactive
11	Ten-m (Tenascin major)	DRSC11882	3		7647	4.45e5	inactive
12	CG8852	DRSC00719			6383	3.07e5	inactive
13	ATPCL (ATP citrate lyase)	DRSC05913			6476	3.36e5	inactive
14	CG11593	DRSC08206			5406	3.13e5	inactive
15	Swt1 (Swt1 RNA endoribonuclease)	DRSC20028			6759	4.47e5	inactive
16	CG10005	DRSC14172			7042	3.93e5	inactive
17	CG7213	DRSC10787			6478	4.57e5	inactive
18	Drsl2 (Drosomycin-like 2)	DRSC08160			5382	4.40e5	inactive
19	Egfrap (EGFR adaptor protein)	DRSC09963			5792	4.84e5	inactive
20	Egfrap (EGFR adaptor protein)	DRSC09964			5923	5.54e5	inactive
21	Kaz (Katazuke)	DRSC14637			6312	3.14e5	inactive
22	Qsox1 (Quiescin sulfhydryl oxidase 1)	DRSC06878			4963	5.51e5	inactive

An excerpt from above, reduced to “stable assay firefly, run 1 (luminescence)”:
Ten-m (Tenascin major) [DRSC11664] = 4.31e5
Ten-m (Tenascin major) [DRSC11882] = 4.45e5
CG8852 [DRSC00719] = 3.07e5
ATPCL (ATP citrate lyase) [DRSC05913] = 3.36e5

Further reagents follow:
no.	gene	dsRNA	siRNA reporter hit score	stable siRNA reporter change	stable assay Renilla, run 1 (luminescence)	stable assay firefly, run 1 (luminescence)	activity call
23	Gld (Glucose dehydrogenase)	DRSC12595			6771	3.43e5	inactive
24	P5CDh1 (delta-1-Pyrroline-5-carboxylate dehydrogenase 1)	DRSC11801			10916	5.49e5	inactive
25	CG31624	DRSC02617			10579	6.01e5	inactive
26	GluRS-m (Glutamyl-tRNA synthetase, mitochondrial)	DRSC10431			7683	3.30e5	inactive
27	Eo (Ecdysone oxidase)	DRSC20187			6346	5.49e5	inactive
28	CG10345	DRSC14138			8601	3.27e5	inactive
29	GluRIIE (Glutamate receptor IIE)	DRSC13431			4863	4.58e5	inactive
30	CR30068 (retired record)	DRSC05477			6507	4.53e5	inactive
31	MED26 (Mediator complex subunit 26)	DRSC17126			5603	2.28e5	inactive
32	MED26 (Mediator complex subunit 26)	DRSC17147			4163	2.27e5	inactive
33	MED26 (Mediator complex subunit 26)	DRSC17148			4555	1.82e5	inactive
34	alpha-Est8 (alpha-Esterase-8)	DRSC12620			7248	3.42e5	inactive
35	CG16974	DRSC02551			1.11e5	1.18e6	inactive
36	CG13300	DRSC09974			5326	2.83e5	inactive
37	ND-MWFE (NADH dehydrogenase (ubiquinone) MWFE subunit)	DRSC06364			5707	3.53e5	inactive
38	CG14564	DRSC11725			6767	3.25e5	inactive
39	CG14564	DRSC22388		reporter ratio lowered past the hit cutoff	1752	3.30e5	inactive
40	CG30491	DRSC21472			8595	5.23e5	inactive
41	Pvf1 (PDGF- and VEGF-related factor 1)	DRSC20024			6950	3.41e5	inactive
42	CG44251	DRSC06856			6534	4.25e5	inactive
43	CG32240	DRSC08093			4359	4.02e5	inactive
44	CG32462	DRSC11851			8416	3.13e5	inactive
45	Traf-like (TNF-receptor-associated factor-like)	DRSC19894			8971	4.99e5	inactive
46	Tsp29Fa (Tetraspanin 29Fa)	DRSC03232			6991	3.50e5	inactive
47	Rab23	DRSC12305			6075	3.24e5	inactive
48	Prdm13 (PR/SET domain 13)	DRSC09970			5774	4.84e5	inactive
49	CG10011	DRSC14174			8435	3.97e5	inactive
50	CG14759	DRSC06494			7787	4.73e5	inactive
51	Tango6 (Transport and Golgi organization 6)	DRSC02671			10831	1.06e6	inactive
52	GPHR (Golgi pH Regulator)	DRSC07075			6751	3.50e5	inactive
53	CG2909	DRSC18241			6055	5.60e5	inactive
54	CG1637	DRSC18865			5882	4.59e5	inactive
55	CG1637	DRSC19748			8086	6.55e5	inactive
56	CG1637	DRSC19749			5508	3.48e5	inactive
57	Dtwd2 (DTW domain containing 2)	DRSC12501			6799	3.62e5	inactive
